Experimental data taken from PubChem BioAssay AID1382 (National Center for Advancing Translational Sciences (NCATS), 2008).
This list was built around the results that the source calls inconclusive (neither active nor inactive); the mix of calls is not that of the screen. Potencies of inconclusive entries are doubtful fits and often do not repeat. Active and inactive are the calls of the source.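 Rule for the calls: active = inhibitors giving a complete concentration-response curve with high efficacy; inconclusive = inhibitors giving only a partial curve with partial efficacy; inactive = the rest.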

By UniProt entry, the sequences of proteins in these tests, tags left out. Where a name states a change or a piece, a line headed by the entry shows the natural chain unless it says otherwise.
UniProt P04062: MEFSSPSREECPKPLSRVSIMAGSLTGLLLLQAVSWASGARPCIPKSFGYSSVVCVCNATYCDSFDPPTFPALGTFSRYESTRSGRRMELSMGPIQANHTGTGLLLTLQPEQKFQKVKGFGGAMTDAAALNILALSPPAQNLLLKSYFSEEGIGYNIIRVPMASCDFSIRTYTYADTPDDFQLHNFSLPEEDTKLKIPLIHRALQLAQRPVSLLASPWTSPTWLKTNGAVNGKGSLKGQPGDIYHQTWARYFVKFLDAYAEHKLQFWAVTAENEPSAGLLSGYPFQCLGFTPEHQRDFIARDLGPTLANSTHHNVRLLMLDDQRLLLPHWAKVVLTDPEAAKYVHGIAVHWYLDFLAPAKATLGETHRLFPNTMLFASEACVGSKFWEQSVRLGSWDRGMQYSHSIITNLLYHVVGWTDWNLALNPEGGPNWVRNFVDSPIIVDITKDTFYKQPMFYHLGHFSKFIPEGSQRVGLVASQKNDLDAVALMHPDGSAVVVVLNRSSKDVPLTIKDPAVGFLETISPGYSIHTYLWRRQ

What follows are molecules tested against Lysosomal acid glucosylceramidase (Homo sapiens) (UniProt P04062) (assay: Confirmation Concentration-Response Assay for Glucocerebrosidase Inhibitors). Details: purified GBA, resorufin glucoside fluorescence, 20 min; series mostly up to 63.5 µM; inhibition: at the top concentration.
Text: NCGC Assay Overview: NIH Molecular Libraries Screening Centers Network [MLSCN] NIH Chemical Genomics Center [NCGC] MLSCN Grant: XO1-MH078932-01 Beta-glucocerebrosidase catalyzes the hydrolysis of beta-glucocerebroside to glucose and ceramide. The inherited deficiency of beta-glucocerebrosidase results in Gaucher disease, which is characterized by a wide variety of symptoms including hepatosplenomegaly, anemia, thrombocytopenia, bony lesions and bone marrow infiltration with characteristic storage cells, known as Gaucher cells. There are also forms of the disorder affecting the central nervous system. Patients with the same genotypes can manifest with diverse clinical presentations and it is believed that improper folding and trafficking of beta-glucocerbrosidase may contribute to the phenotypes observed. Low molecular weight molecules, acting as chaperones, may potentially restore trafficking of misfolded beta-glucocerebrosidase from the endoplasmic reticulum to the lysosomes, thereby enhancing functional lysosomal beta-glucocerebrosidase activity. Using normal beta-glucocerebrosidase, an assay was developed to screen for small molecule inhibitors that could potentially act as molecular chaperones on the mutant forms [developed with NIH investigator Dr. Ellen Sidransky's laboratory]. A pro-fluorescent substrate was chosen for a screen against a small molecule library. The beta-glucocerebrosidase assay used Resorufin beta-D-Glucopyranoside (Marker Gene Technology Inc.), generating a red fluorescent product. The Km for the Resorufin beta-D-Glucopyranoside was determined to be 71.2 uM. The IC50 values of Conduritol B Epoxide, a known glucocerebrosidase inhibitor, was determined to be 87.5 uM. All compounds were screened in a titration series resulting in AC50s (e.g., IC50s or EC50s). To confirm activity from the original screen, samples were reacquired from MLSCN and also synthesized in-house, and re-screened against the original assay at a higher density of titration points.
NCGC Assay Protocol Summary: Both enzyme and substrate were diluted in buffer composed of 50mM citric acid/KH2PO4, 10mM sodium taurocholate and 0.01% tween-20 at pH 5.9. The final concentration of the enzyme was 0.2 nM in both assays. The compound library was titrated in 7 to 15 concentrations for the primary screens with a final concentration ranging from 0.6 nM to 50 uM. This particular assay protocol was performed in 1536-well plate format as follows: Red fluorescence substrate assay: 2 uL enzyme 23 nL compound 1 uL substrate (final concentration of 30 uM) Incubate at room temperature (RT) for 20 minutes Read the plate in Viewlux plate reader (Ex=548(7) and Em=600(10)).

Row | SMILES | Potency | inhibition
1 | O=C(NCc1ccccc1)c1ccc(NS(=O)(=O)c2ccccc2)cc1 | inconclusive: 85.1 µM [inhibitor] | –
2 | Cc1cc(Nc2cccc(Cl)c2)nc2ccc(NC(=O)C3CCC(C)CC3)cc12 (centres undefined) | – | inactive: 27%
3 | Cc1cc(NC(=O)c2ccc(N(C)S(=O)(=O)c3ccccc3)cc2)no1 | inconclusive: 11.4 µM [inhibitor] | –
4 | CN(c1ccc(C(=O)Nc2nccs2)cc1)S(=O)(=O)c1ccccc1 | inconclusive: 25.6 µM [inhibitor] | –
5 | O=C(Nc1ccccc1)c1ccc(NS(=O)(=O)c2ccccc2)cc1 | inconclusive: 2.95 µM [inhibitor] | –
6 | Cc1cc(N2CCCCC2)nc2ccc(NC(=O)C3CCC(C)CC3)cc12 (centres undefined) | active: 0.339 µM | –
7 | Cc1cc(N2CCN(c3ncccn3)CC2)nc2ccc(NC(=O)C3CCC(C)CC3)cc12 (centres undefined) | active: 1.89 µM | –
8 | CCCC1CCC(C(=O)Nc2ccc3nc(N4CCOCC4)cc(C)c3c2)CC1 (centres undefined) | active: 0.104 µM | –
9 | CCCCNC(=O)c1ccc(NS(=O)(=O)c2ccccc2)cc1 | inconclusive: 13.2 µM [inhibitor] | –
